55 sequences from publication PMC7862700 can be followed below.

The entries are a selection whose mix differs from that of the whole data set. At the low end of the ranking, values are background and their order means little.

Holding throughout (assay): DAPPL (digital affinity profiling via proximity ligation, sequencing)
What all share (conditions): 10 mM Tris-HCl pH 7.5, 50 mM NaCl, 1 mM DTT, 4% glycerol, room temperature, 30 min; GST-TFs on glutathione beads, 16-mer random dsDNA library, 0.1% …; high values mean tight binding; double strand, one strand shown; scale: fold enrichment (6-mer frequency, TF over GST control)

In assay [1] the target is T1, ELK1 (UniProt P19419).
T1 sequence: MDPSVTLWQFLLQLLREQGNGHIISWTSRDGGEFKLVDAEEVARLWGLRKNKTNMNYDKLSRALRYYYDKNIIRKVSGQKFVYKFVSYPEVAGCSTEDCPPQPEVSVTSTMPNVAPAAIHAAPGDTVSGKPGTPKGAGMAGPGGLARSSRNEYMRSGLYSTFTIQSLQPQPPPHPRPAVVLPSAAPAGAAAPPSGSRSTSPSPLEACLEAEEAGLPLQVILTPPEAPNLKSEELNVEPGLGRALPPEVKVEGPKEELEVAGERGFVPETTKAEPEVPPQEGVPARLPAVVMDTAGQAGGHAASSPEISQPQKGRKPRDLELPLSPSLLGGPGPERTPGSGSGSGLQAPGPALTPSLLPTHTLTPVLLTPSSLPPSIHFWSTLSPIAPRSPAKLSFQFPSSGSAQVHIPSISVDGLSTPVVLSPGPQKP

The target in assay [2] is T2, ELK3 (UniProt P41970).
T2 sequence: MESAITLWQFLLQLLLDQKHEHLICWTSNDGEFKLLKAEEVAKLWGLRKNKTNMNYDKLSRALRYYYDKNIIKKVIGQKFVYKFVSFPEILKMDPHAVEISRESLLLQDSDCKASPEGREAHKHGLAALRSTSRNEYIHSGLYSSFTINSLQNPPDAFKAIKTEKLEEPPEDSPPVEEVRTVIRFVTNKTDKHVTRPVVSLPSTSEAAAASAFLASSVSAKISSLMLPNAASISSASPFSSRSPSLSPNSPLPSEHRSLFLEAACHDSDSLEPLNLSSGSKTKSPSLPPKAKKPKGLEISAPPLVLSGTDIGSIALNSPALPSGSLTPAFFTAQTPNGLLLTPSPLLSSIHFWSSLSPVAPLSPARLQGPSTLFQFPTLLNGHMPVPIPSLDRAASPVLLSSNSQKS

Assay [3] deals with T3, SPIC (UniProt Q8N5J4).
T3 sequence: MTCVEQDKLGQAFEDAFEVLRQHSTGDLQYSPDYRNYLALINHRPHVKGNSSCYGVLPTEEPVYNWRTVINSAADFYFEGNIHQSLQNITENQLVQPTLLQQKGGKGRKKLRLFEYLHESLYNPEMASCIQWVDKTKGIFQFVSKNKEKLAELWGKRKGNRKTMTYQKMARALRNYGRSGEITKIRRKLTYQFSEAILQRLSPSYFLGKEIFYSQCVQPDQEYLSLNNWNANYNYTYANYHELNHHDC

Assay [4] addresses T4, ETS2 (UniProt P15036).
T4 sequence: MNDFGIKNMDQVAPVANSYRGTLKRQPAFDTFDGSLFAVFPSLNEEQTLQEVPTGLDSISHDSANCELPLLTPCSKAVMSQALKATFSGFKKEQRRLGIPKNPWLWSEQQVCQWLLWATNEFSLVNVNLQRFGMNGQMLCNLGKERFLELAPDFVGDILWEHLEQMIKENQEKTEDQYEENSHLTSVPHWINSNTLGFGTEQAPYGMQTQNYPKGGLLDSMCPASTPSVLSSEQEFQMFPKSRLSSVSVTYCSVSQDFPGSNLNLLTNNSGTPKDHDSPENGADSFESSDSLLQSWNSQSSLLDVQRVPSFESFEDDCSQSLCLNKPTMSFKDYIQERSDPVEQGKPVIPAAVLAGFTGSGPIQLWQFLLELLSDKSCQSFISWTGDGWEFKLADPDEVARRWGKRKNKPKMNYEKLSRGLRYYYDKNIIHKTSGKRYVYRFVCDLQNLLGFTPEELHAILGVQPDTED

The target in assay [5] is T5, ETV3 (UniProt P41162-2).
T5 sequence: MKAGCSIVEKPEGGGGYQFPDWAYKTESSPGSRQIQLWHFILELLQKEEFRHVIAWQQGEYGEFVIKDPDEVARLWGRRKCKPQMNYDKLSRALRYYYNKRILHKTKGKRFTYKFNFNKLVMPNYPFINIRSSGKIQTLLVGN

In the case of AACCGT, the binding signal in assay [1] is 0.517; in assay [2], 0.604; in assay [3] it was 0.494; in assay [4], 0.543; in assay [5], 0.569.
On to CAGACG, for which the binding signal was found to be 0.451 in assay [1]; 0.513 in assay [2]; 0.511 in assay [3]; 0.501 in assay [4]; 0.471 in assay [5].
Regarding CGTGCC, the binding signal in assay [1] turned out to be 0.761; in assay [2], 0.663; in assay [3], 0.942; in assay [4], 0.796; in assay [5], 0.748.
CCGTAG: the binding signal in assay [1] is 0.879; in assay [2], 1.02; in assay [3], 0.904; in assay [4], 0.796; in assay [5] it was 0.876.
The corresponding values for AGGTGA are 0.631, 0.591, 0.501, 0.567 and 0.53.
The matching figures for AGAGGA: 0.624, 0.696, 0.748, 0.669 and 0.674.
On to CGTGGA, for which the binding signal in assay [1] came to 0.556; in assay [2], 0.511; in assay [3], 0.562; in assay [4] it was 0.582; in assay [5], 0.634.
The corresponding values for GGACAG are 0.649, 0.54, 0.546, 0.591 and 0.55.
The matching figures for GGAGGA: 0.226, 0.297, 0.278, 0.246 and 0.253.
Regarding CGGGCG, the binding signal in assay [1] was determined as 0.434; in assay [2] it was 0.412; in assay [3] it was 0.362; in assay [4] it was 0.427; in assay [5], 0.439.
The corresponding values for ACAGTG are 0.468, 0.524, 0.495, 0.499 and 0.487.
The matching figures for CTGGAG: 0.638, 0.663, 0.749, 0.633 and 0.658.
GGGAAG: the binding signal in assay [1] was 0.798; in assay [2], 0.884; in assay [3], 0.973; in assay [4] it was 0.895; in assay [5] it was 0.841.
As to GCAACG, the binding signal came to 0.998 in assay [1]; 0.94 in assay [2]; 1 in assay [3]; 0.96 in assay [4]; 0.974 in assay [5].
The matching figures for GAGAGT: 0.358, 0.357, 0.322, 0.315 and 0.376.
As for CGTGAT, the binding signal came out at 0.507 in assay [1]; 0.467 in assay [2]; 0.4 in assay [3]; 0.495 in assay [4]; 0.451 in assay [5].
The corresponding values for CGTGCG are 0.584, 0.541, 0.529, 0.614 and 0.714.
The matching figures for AGCGTG: 0.333, 0.346, 0.37, 0.353 and 0.416.
As to AGTGGG, the binding signal came out at 0.644 in assay [1]; 0.622 in assay [2]; 0.759 in assay [3]; 0.67 in assay [4]; 0.628 in assay [5].
Regarding CGCGAG, the binding signal in assay [1] turned out to be 0.522; in assay [2] it was 0.548; in assay [3], 0.534; in assay [4] it was 0.477; in assay [5], 0.513.
The corresponding values for CAGCAG are 0.784, 0.776, 0.98, 0.886 and 0.849.
The matching figures for GTTAGG: 0.825, 0.791, 0.71, 0.834 and 0.744.
For CCAGGA, the binding signal in assay [1] turned out to be 0.634; in assay [2], 0.622; in assay [3], 0.657; in assay [4], 0.665; in assay [5], 0.756.
The matching figures for GGCTGG: 0.795, 0.716, 0.803, 0.792 and 0.8.
The matching figures for ACCAGG: 0.777, 0.73, 0.758, 0.758 and 0.785.
The matching figures for GTACGT: 0.865, 0.955, 0.95, 0.877 and 0.828.
GGGAGA: the binding signal in assay [1] is 0.34; in assay [2], 0.291; in assay [3] it was 0.389; in assay [4], 0.319; in assay [5], 0.337.
Regarding CGGGCA, the binding signal in assay [1] is 0.718; in assay [2] it was 0.707; in assay [3], 0.803; in assay [4], 0.684; in assay [5], 0.751.
As to GAGGTT, the binding signal in assay [1] was found to be 0.703; in assay [2], 0.702; in assay [3] it was 0.605; in assay [4], 0.817; in assay [5], 0.793.
The corresponding values for CGGGTG are 0.72, 0.676, 0.704, 0.654 and 0.647.
The matching figures for GCAGTC: 0.482, 0.5, 0.474, 0.464 and 0.502.
The matching figures for GAATCG: 0.595, 0.644, 0.59, 0.65 and 0.716.
Turning to GGGTAG, the binding signal in assay [1] is 0.669; in assay [2], 0.654; in assay [3] it was 0.672; in assay [4] it was 0.654; in assay [5], 0.66.
On to GAGATC, for which the binding signal in assay [1] came out at 0.456; in assay [2], 0.425; in assay [3], 0.433; in assay [4], 0.442; in assay [5], 0.446.
The matching figures for TCGCCA: 0.994, 0.998, 0.957, 0.996 and 0.91.
Regarding GACACC, the binding signal in assay [1] was found to be 0.942; in assay [2], 0.864; in assay [3], 0.895; in assay [4], 0.902; in assay [5] it was 0.961.
The matching figures for GTAGTC: 0.763, 0.651, 0.573, 0.7 and 0.642.
The matching figures for AGGCGG: 0.245, 0.241, 0.255, 0.24 and 0.256.
The corresponding values for GCGAGG are 0.602, 0.606, 0.637, 0.616 and 0.578.
In the case of CGCGTG, the binding signal in assay [1] amounted to 0.731; in assay [2] it was 0.617; in assay [3] it was 0.748; in assay [4], 0.671; in assay [5], 0.676.
The matching figures for GACAGT: 0.466, 0.494, 0.468, 0.448 and 0.445.
The corresponding values for GGATTG are 0.829, 0.7, 0.883, 0.884 and 0.797.
GGGGGG: the binding signal in assay [1] was 0.558; in assay [2] it was 0.658; in assay [3], 0.544; in assay [4], 0.589; in assay [5] it was 0.567.
With CAAGGC, the binding signal in assay [1] is 0.923; in assay [2], 0.93; in assay [3], 0.878; in assay [4] it was 0.829; in assay [5] it was 0.971.
The matching figures for AGGTGG: 0.579, 0.685, 0.664, 0.609 and 0.54.
The corresponding values for TCAGAG are 0.745, 0.704, 0.73, 0.735 and 0.694.
The matching figures for GACTGT: 0.42, 0.431, 0.361, 0.438 and 0.389.
In the case of CAGAGA, the binding signal came to 0.622 in assay [1]; 0.619 in assay [2]; 0.611 in assay [3]; 0.584 in assay [4]; 0.612 in assay [5].
The matching figures for GCAAGA: 0.795, 0.775, 0.912, 0.808 and 0.79.
On to GCATCG, for which the binding signal in assay [1] worked out at 0.835; in assay [2], 0.767; in assay [3], 0.842; in assay [4] it was 0.802; in assay [5] it was 0.789.
The corresponding values for TCGGCG are 0.506, 0.562, 0.635, 0.469 and 0.531.
On to GACCAG, for which the binding signal in assay [1] turned out to be 0.612; in assay [2] it was 0.721; in assay [3], 0.597; in assay [4] it was 0.633; in assay [5], 0.625.
The corresponding values for ACCGGG are 0.491, 0.476, 0.55, 0.504 and 0.475.
The matching figures for GCGGGG: 0.445, 0.513, 0.523, 0.464 and 0.445.
The corresponding values for CGTGGC are 0.868, 0.894, 0.915, 0.969 and 0.913.
